These are yes or no findings as the source states them, for the method shown. In cells and extracts the contact can be indirect. These calls come from enrichment with a bait or labelling near it, and not all partners need be listed.
Molecular target: 3Flag-STAU1 (UniProt O95793)
Assay: affinity purification with mass spectrometry; 3flag-STAU1 transfected into HepG2 cells; proteins immunoprecipitated by anti-Flag antibody or IgG control analysed by mass spectrometry

Amino acid sequences for entries named in this document (tags omitted).
UniProt O95793: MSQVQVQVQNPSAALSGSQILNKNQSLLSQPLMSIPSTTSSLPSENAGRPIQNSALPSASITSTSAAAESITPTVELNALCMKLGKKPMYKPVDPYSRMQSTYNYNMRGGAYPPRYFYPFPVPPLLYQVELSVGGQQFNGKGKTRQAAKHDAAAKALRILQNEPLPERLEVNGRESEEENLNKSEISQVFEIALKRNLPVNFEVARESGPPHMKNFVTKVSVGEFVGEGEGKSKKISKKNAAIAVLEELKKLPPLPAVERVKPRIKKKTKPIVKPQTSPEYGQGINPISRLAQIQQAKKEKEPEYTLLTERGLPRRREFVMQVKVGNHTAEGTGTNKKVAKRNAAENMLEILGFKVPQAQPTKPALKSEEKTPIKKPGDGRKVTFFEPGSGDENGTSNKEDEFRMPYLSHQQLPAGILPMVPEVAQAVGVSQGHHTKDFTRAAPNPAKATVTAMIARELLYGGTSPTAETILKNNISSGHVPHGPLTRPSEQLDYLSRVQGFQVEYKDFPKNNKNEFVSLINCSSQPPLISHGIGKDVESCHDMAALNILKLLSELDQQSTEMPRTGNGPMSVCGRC
UniProt Q12962: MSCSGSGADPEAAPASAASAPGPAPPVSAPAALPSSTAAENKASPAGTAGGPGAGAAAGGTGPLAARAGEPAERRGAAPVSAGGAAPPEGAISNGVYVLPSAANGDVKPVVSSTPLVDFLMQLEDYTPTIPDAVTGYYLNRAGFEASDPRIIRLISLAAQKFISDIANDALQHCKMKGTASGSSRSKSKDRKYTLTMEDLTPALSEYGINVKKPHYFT
UniProt O14929: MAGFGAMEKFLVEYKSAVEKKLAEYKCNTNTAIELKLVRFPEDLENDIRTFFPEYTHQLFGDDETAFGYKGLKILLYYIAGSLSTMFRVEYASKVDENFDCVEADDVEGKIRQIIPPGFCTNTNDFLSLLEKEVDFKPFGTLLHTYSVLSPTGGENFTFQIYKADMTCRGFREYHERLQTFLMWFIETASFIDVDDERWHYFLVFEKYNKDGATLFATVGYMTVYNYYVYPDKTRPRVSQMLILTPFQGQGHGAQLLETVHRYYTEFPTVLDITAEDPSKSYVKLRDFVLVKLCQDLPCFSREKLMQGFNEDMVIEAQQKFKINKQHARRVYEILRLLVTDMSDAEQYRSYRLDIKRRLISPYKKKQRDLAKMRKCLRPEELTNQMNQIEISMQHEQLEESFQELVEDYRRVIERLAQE

Substance | binding
TAF10 (found by mass spectrometry in the anti-Flag IP) (from UniProt Q12962 1-218) | binds
HAT1 (found by mass spectrometry in the anti-Flag IP) (from UniProt O14929 1-419) | binds

From paper PMC9156947
